From PMC3924036
These are yes or no findings as the source states them, for the method shown. In cells and extracts the contact can be indirect. These calls come from enrichment with a bait or labelling near it, and not all partners need be listed. No binding means not detected with the bait. Tags and fused reporters may be left off the sequences shown.

T1: DivIVA-GFP-His-tag fusion (strain 3308) (B. subtilis) (UniProt P71021)
T1 sequence: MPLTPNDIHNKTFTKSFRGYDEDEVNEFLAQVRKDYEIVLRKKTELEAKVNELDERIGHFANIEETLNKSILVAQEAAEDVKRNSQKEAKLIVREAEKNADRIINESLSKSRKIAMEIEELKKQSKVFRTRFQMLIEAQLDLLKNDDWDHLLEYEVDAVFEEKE


Biological target: T1, DivIVA-GFP-His-tag fusion (strain 3308) (B. subtilis)
Test: cross-linking + affinity purification with mass spectrometry; in vivo cross-linking of an exponentially growing culture of strain 3308 with 1% formaldehyde for 20 min, quenched with 75 mM glycine; cells broken and treated with Urea/SDS; DivIVA-GFP-His purified on a Ni-NTA column; cross-links reversed by heating; bands of an SDS-PAA gel identified by mass spectrometry

Molecule | binding
secretion ATPase SecA (from UniProt P28366 1-841) (enzyme) | binds
PdhA (from UniProt P21881 1-371) (enzyme) | no binding
FusA (from UniProt P80868 1-692) | no binding
DnaK (from UniProt P17820 1-611) | no binding
unknown protein YxkC (protein, UniProt P94356 31-180) TSKTSSSSKAETEKTYNIGDTVKTEKTEVTVTKVEDRDTVGTQYVEKKASEGGTIVAVQYTIKNVSKKPISSFSIPTVKLVDADGTSYDSDIDASVNYATETKVDNSKILSDLNPNIKVTGVKAFEVDKEAYAKGTWKLKFSNDVIVKIK | binds
prephenate dehydratase PheA (enzyme, UniProt P21203 1-285) MKVGYLGPAATFTHLAVSSCFQNGAEHVAYRTIPECIDAAVAGEVDFAFVPLENALEGSVNLTIDYLIHEQPLPIVGEMTLPIHQHLLVHPSRENAWKELDKIYSHSHAIAQCHKFLHRHFPSVPYEYANSTGAAAKFVSDHPELNIGVIANDMAASTYELKIVKRDIQDYRDNHTRFVILSPDENISFEVNSKLSSRPKTTLMVMLPQDDQSGALHRVLSAFSWRNLNLSKIESRPTKTGLGHYFFIIDIEKAFDDVLIPGAMQELEALGCKVRLLGAYQSYQL | binds
Tsf (protein, UniProt P80700 1-293) MAITAQQVKELREKTGAGMMDCKKALTETDGDMDKAIDLLREKGIAKAAKKADRIAAEGSTLIKTDGNKGVILEVNSETDFVAKNEGFKELLNTLADHLLANTPADVEEAMGQKMENGSTVEEYITSAVAKIGEKITLRRFTVLTKDDSSAFGAYLHMGGRIGVLTVLNGTTDEETAKDIAMHVAAVNPRYISRDQVSEEETNHERQILTQQALQEGKPENIVAKMVEGRLNKFFEEICLLDQAFVKNPDEKVKQVIAAKNATVQTFVRYEVGEGIEKRQENFAEEVMNQVKK | no binding
Tkt (enzyme, UniProt P45694 1-667) MDTIEKKSVATIRTLSIDAIEKANSGHPGMPMGAAPMAYTLWTKFMNVSPANPGWFNRDRFVLSAGHGSALLYSMLHLSGFDLSIEDLKGFRQWGSKTPGHPEFGHTAGVDATTGPLGQGIAMAVGMAIAERHLAETYNRDSFNVVDHYTYSICGDGDLMEGISSEAASLAGHLQLGRLIVLYDSNDISLDGDLDRSFSENVKQRFEAMNWEVLYVEDGNNIEELTAAIEKARQNEKKPTLIEVKTTIGFGSPNRAGTSGVHGAPLGKEESKLTKEAYAWTYEEDFYVPSEVYEHFAVAVKESGEKKEQEWNAQFAKYKEVYPELAEQLELAIKGELPKDWDQEVPVYEKGSSLASRASSGEVLNGLAKKIPFFVGGSADLAGSNKTTIKNAGDFTAVDYSGKNFWFGVREFAMGAALNGMALHGGLRVFGGTFFVFSDYLRPAIRLAALMGLPVTYVFTHDSIAVGEDGPTHEPVEQLASLRAMPNLSLIRPADGNETAAAWKLAVQSTDHPTALVLTRQNLPTIDQTSEEALAGVEKGAYVVSKSKNETPDALLIASGSEVGLAIEAQAELAKENIDVSVVSMPSMDRFEKQSDEYKNEVLPADVKKRLAIEMGSSFGWGKYTGLEGDVLGIDRFGASAPGETIINEYGFSVPNVVNRVKALINK | no binding
YdjL (enzyme, UniProt O34788 1-346) MKAARWHNQKDIRIEHIEEPKTEPGKVKIKVKWCGICGSDLHEYLGGPIFIPVDKPHPLTNETAPVTMGHEFSGEVVEVGEGVENYKVGDRVVVEPIFATHGHQGAYNLDEQMGFLGLAGGGGGFSEYVSVDEELLFKLPDELSYEQGALVEPSAVALYAVRSSKLKAGDKAAVFGCGPIGLLVIEALKAAGATDIYAVELSPERQQKAEELGAIIVDPSKTDDVVAEIAERTGGGVDVAFEVTGVPVVLRQAIQSTTIAGETVIVSIWEKGAEIHPNDIVIKERTVKGIIGYRDIFPAVLSLMKEGYFSADKLVTKKIVLDDLIEEGFGALIKEKSQVKILVRPN | no binding
